Here are results for six molecules from paper PMC6334971.

Experiment [1] has as its target T1, HA-tagged Tom36 (Trichomonas vaginalis) (UniProt A2DU34).
T1 sequence: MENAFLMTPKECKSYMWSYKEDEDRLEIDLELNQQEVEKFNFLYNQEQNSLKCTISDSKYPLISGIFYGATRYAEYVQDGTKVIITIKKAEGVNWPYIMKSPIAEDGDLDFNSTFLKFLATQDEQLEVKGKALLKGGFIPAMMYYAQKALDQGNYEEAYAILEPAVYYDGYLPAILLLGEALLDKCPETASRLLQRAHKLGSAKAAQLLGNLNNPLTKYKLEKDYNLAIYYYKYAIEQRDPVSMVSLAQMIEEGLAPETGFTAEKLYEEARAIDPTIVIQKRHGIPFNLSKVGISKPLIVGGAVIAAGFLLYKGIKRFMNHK
Kind of experiment: affinity purification with mass spectrometry; coIP of the HA-tagged bait with α-HA Dynabeads from isolated hydrogenosomes under native conditions (no crosslinker), MKG buffer with 1% digitonin; eluted with HA peptide; LFQ-MS against the wild-type strain; four independent coIPs.

Experiment [2] concerns the target T2, HA-tagged TvTom40-2 (T. vaginalis TOM 40-2) (Trichomonas vaginalis) (UniProt A2EH93).
T2 sequence: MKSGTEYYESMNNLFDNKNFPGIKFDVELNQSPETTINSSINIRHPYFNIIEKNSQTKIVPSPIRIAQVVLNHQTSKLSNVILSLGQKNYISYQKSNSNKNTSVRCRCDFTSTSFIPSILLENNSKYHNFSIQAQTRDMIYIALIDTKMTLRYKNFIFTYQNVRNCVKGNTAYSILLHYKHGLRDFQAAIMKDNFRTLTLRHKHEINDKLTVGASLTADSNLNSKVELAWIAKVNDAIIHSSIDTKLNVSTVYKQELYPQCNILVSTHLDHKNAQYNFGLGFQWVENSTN
The description is as above.

The target of experiment [3] is T1, HA-tagged Tom36 (Trichomonas vaginalis). Briefly: affinity purification with mass spectrometry; coIP of the HA-tagged bait with α-HA Dynabeads from isolated hydrogenosomes crosslinked with 1 mM DSP (30 min, 25 °C), solubilised in MKG buffer with 1% digitonin; eluted with SDS-PAGE buffer; LFQ-MS against the wild-type strain; four independent coIPs.
Experiment [4] has as its target T2, HA-tagged TvTom40-2 (T. vaginalis TOM 40-2) (Trichomonas vaginalis). Described as above.

These are yes or no findings as the source states them, for the method shown. In cells and extracts the contact can be indirect. A yes stands for co-enrichment or nearness to the bait. Other partners may have been found. Tags and fused reporters may be left off the sequences shown.

Turning to “hydrogenosomal membrane protein 35 (Hmp35)”, the binding result in experiment [1], in experiment [2], in experiment [3] and in experiment [4] was “binds” each time.

B1: Tom46 (protein, UniProt A2FNS9 1-412)
chain: MEVDLVIPSNQVRIYMWEFAQDDSNLTITIDLHEEDPQTFTANYSKDDNTLKCTLKGAKYPIVNGILHKATDSMDKTIDGNTVVLKLHKVENGNWSYPIESPVAGESDIDFNSAFLKSIQNPEKPENQEKINNLVKAGFIPAIMYNAKKLIDAEDIDKAADLLDNIVFVEPYLPAVLLLGEAYMTKSPGMAVHCLQTGYRLGSKRAAKLLGDLYSPVSEYKSNKDADMSLTYYRYGIEDKDPQSMVAAAQLIESGLGPKTNILEPDELYEEAKAIDPTIVIPKRHKEEPKPVEQPKPVEQPKPVEQPKPVEQPKPVEQPKPVEQPKPVEQPTPEPAPEPEPKPEPPVAPEPEPVHEEPEPEPPVVKELIRNYPYPDDEYPTINTKAMILTGIAGAAVLVGAIIIIAKKLMKK
On to B1, for which the binding result in experiment [3] and in experiment [4] was “binds” each time.

B2: Sam50 (sorting and assembly machinery 50) (protein, UniProt A2DIG2 1-398)
chain: MSSAPEWFPTGSLQEAIDEVKKLTVDDEFKEAAMKSIAEKVLQLGSIKSATIDAKTGEYNVVARDGLMKTYVGGDIGTEKAVRASTGWANFFKRGETISLTGKYTVGGNPSVNVAFTLPDFKSVDFSKNTPFRTYSYAFNIEKNDDGYKSIQSAGFEFNLGGGKDVFSKSISLSAIRQAIDSDVPFPLKYEPNPYFKFQIGAGMPSFLPMQRNQIHAGLICDTKLAVTPFVKATGFNKINLPFGISITANMGLISSLRKRPGAKLSLENMTPVPYPEKFLLGGLPTIYGVDAAKFGYKYGGFPIGSNVYASLTLDESVLIFPEQSLNGHIFLSGSIAKNFSSYFPQSCDPSWTSLAVAGVGLTFIQGQVKVEANLQKPIFQSGAKLNVLTYQLGITPA
For B2, the binding entry in experiment [1] and in experiment [3] was “binds” each time.

B3: hydrogenosomal outer membrane protein 19 (Homp19) (protein, UniProt A2DEL5 1-165)
chain: MPDDKYAVSFNAGVDFYKKGQIYQSLQCFADIINEGKTLSQEPTEEFVRYFANTVNYIRIISLSIQSPLEKKISAIEDEFEINTKKIKEFGDQQKNSKTLRELCVETANYISPLIDDLSIDFTDEKETTSTYKIITAVAVSVSICAAAYFLFRKKKLPEIKTAKK
For the molecule B3, the binding entry in experiment [2], in experiment [3] and in experiment [4] was “binds” each time.

B4: Homp38 (protein, UniProt A2EFG6 1-342)
chain: MITPSHQIIYDWEYQDQQEECFVTIHFPPTFNPQVLKYVLSEDKTNLILSMDSPIPIVCGRLWGEVKEIKDVYTSDKYVLSITKQTPEEWPNIIKAVHPEFESLDPKSAYIQFQELVLEAPKDPQFQHYAIERLVASAQTGFLPALRTYGSMMLTVNGQQQNGFTSLKTAADTYGDPASAYQVGLILASTPEGFTNGISYLKFAGSKGFHAAYLTLGQIYSPFTEFEAQKDPALAAQYLQQAIAAGDEMPQAYNELSKLYAAGVGVEKDLKKAQELLAKGEQLEEHQNRRRYSKEHGETAPPPEKHEDRSYAGIGKIIAIGGGIAAFVAGFSYAIYKKFSRK
Regarding B4, the binding entry in experiment [3] was “binds”.

B5: Tom36 (protein, UniProt A2DU34 1-322)
chain: MENAFLMTPKECKSYMWSYKEDEDRLEIDLELNQQEVEKFNFLYNQEQNSLKCTISDSKYPLISGIFYGATRYAEYVQDGTKVIITIKKAEGVNWPYIMKSPIAEDGDLDFNSTFLKFLATQDEQLEVKGKALLKGGFIPAMMYYAQKALDQGNYEEAYAILEPAVYYDGYLPAILLLGEALLDKCPETASRLLQRAHKLGSAKAAQLLGNLNNPLTKYKLEKDYNLAIYYYKYAIEQRDPVSMVSLAQMIEEGLAPETGFTAEKLYEEARAIDPTIVIQKRHGIPFNLSKVGISKPLIVGGAVIAAGFLLYKGIKRFMNHK
With B5, the binding result in experiment [2] and in experiment [4] was “binds” in each case.
